This passage reports IC50 results from patent US12215107B1, “Pyrazino[1′,2′:1,5]pyrazolo[4,3-c] [2,6] naphthyridine compounds as CK2 inhibitors” (KING FAISAL UNIVERSITY, priority 2024, dated 2025).

Assay type in all cases: cell-based
One assay deals with A375 (melanoma). Put plainly: MTT in vitro cytotoxic activity assay, A375. The following applies: Homo sapiens, A-375, cells exposed for 96 hours, read-out: Cytotoxicity activity IC50 (50% inhibition of cell proliferation). As to the method:
(§1) Compounds 1-16 were screened for their in vitro cytotoxic activity utilizing a 3-(4,5-dimethyl-thiazol-2-yl)-2,5-diphenyltetrazolium bromide (MTT) assay against selected cancer human cell lines consisting of PC3 (prostate), HCT116 (colon), A375 (melanoma), H1299 (lung), MIAPaCa-2 (pancreas), HL60 (leukemia), MCF7 (breast), MDA-MB-231 (breast) (T. Mosmann, J. Immunol. Meth., 1983, 65, 55-63). The cells were cultured at 37° C. in RMPI1640 medium supplemented with 10% fetal bovine serum, 50 IU/mL penicillin, and 50 μg/mL streptomycin in a 5% CO2 incubator. All cells were sub-cultured 3 times/week by trypsinisation. Viable cells were seeded and allowed to adhere for 12 hours before a test drug was added in 96-well plates at an initial density of 1.0×10^5 cells/mL. Tumor cell lines were separately exposed to various concentrations of the tested compounds followed by incubation at a temperature of 37° C. during 96 hours inside a medium of fresh RMPI 1640. Cells were subsequently incubated at 37° C. using MTT at 0.5 mg/mL during 4 hours. After removal of supernatant, formazan crystals were dissolved in isopropanol and the optical density was measured at 570 nm. CX-4945 was used as a positive control.

For another assay, the system named is HCT116 (colon). In words: MTT in vitro cytotoxic activity assay, HCT116. The following applies: Homo sapiens, HCT-116, cells exposed for 96 hours, read-out: Cytotoxicity activity IC50 (50% inhibition of cell proliferation). Here is the method: as §1
The subject of another assay is MIAPaCa-2 (pancreas). In words: MTT in vitro cytotoxic activity assay, MIAPaCa-2. The following applies: Homo sapiens, MIA PaCa-2, cells exposed for 96 hours, read-out: Cytotoxicity activity IC50 (50% inhibition of cell proliferation). Here is the method: as §1
For another assay, the system named is H1299 (lung). Put plainly: MTT in vitro cytotoxic activity assay, H1299. The following applies: Homo sapiens, NCI-H1299, cells exposed for 96 hours, read-out: Cytotoxicity activity IC50 (50% inhibition of cell proliferation). Here is the method: as §1
For a further assay, the system named is HL60 (leukemia). Put plainly: MTT in vitro cytotoxic activity assay, HL60. The following applies: Homo sapiens, HL-60, cells exposed for 96 hours, read-out: Cytotoxicity activity IC50 (50% inhibition of cell proliferation). As to the method: as §1
A further assay has as its system MCF7 (breast). In words: MTT in vitro cytotoxic activity assay, MCF7. The following applies: Homo sapiens, cells exposed for 96 hours, read-out: Cytotoxicity activity IC50 (50% inhibition of cell proliferation). As to the method:
as §1

The subject of another assay is MDA-MB-231 (breast). Put plainly: MTT in vitro cytotoxic activity assay, MDA-MB-231. The following applies: Homo sapiens, cells exposed for 96 hours, read-out: Cytotoxicity activity IC50 (50% inhibition of cell proliferation). Here is the method:
as §1

The next assay relates to PC3 (prostate). In words: MTT in vitro cytotoxic activity assay, PC3. The following applies: Homo sapiens, Prostate cell, cells exposed for 96 hours, read-out: Cytotoxicity activity IC50 (50% inhibition of cell proliferation). As to the method: as §1

As to `O=C(O)c1ccc2c(c1)nc(Nc1cccc(Cl)c1)c1ccncc12` [CX-4945, reference compound], the IC50 came out at 4100 nM in the assay with A375 (melanoma); 2300 nM in the assay on HCT116 (colon); 1000 nM in the assay with MIAPaCa-2 (pancreas); 2300 nM in the assay on H1299 (lung); 3700 nM with HL60 (leukemia); 9100 nM in the assay on MCF7 (breast). Moreover, the IC50 with MDA-MB-231 (breast) was determined as 6200 nM; in the assay with PC3 (prostate), 2000 nM.
